Source: the supplement of paper PMC8728848
The list shows a part of the results.

Experiments:
Test in all cases: glycan array binding signal (z-score within array); higher = stronger binding
Conditions in all cases: glycan notation: IUPAC condensed, linker removed
[1] = molecular target: GlcNAc(a1-4)Gal(b1-3)GlcNAc
Summary of the method: (§1)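 From the Consortium for Functional Glycomics database, 3228 arrays were curated, keeping only those whose protein sequence was available. Binding is given as a within-array Z-score averaged across arrays sharing a protein sequence and across linkers. Negative Z-scores can be read as non-binding.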

[2] = molecular target: GlcNAc(a1-4)Gal(b1-4)GalNAc
Summary of the method: as §1

[3] = molecular target: GlcNAc(a1-4)Gal(b1-4)GlcNAc
Summary of the method: as §1

[4] = molecular target: GlcNAc(a1-4)Gal(b1-4)GlcNAc(b1-3)Gal(b1-4)Glc
Summary of the method: as §1

[5] = molecular target: GlcNAc(a1-4)Gal(b1-4)GlcNAc(b1-3)Gal(b1-4)GlcNAc
Summary of the method: as §1

[6] = molecular target: GlcNAc(a1-4)Gal(b1-4)GlcNAc(b1-3)Gal(b1-4)GlcNAc(b1-3)Gal(b1-4)GlcNAc
Summary of the method: as §1

[7] = molecular target: GlcNAc(a1-4)Gal(b1-4)GlcNAc(b1-3)Gal(b1-4)[Fuc(a1-3)]GlcNAc(b1-3)Gal(b1-4)[Fuc(a1-3)]GlcNAc
Summary of the method: as §1

[8] = molecular target: GlcNAc(a1-6)Gal(b1-4)GlcNAc
Summary of the method: as §1

[9] = molecular target: GlcNAc(b1-2)Gal(b1-3)GalNAc
Summary of the method: as §1

[10] = molecular target: GlcNAc(b1-2)Man(a1-3)[GlcNAc(b1-2)Man(a1-6)]Man(b1-4)GlcNAc(b1-4)GlcNAc
Summary of the method: as §1

[11] = molecular target: GlcNAc(b1-2)Man(a1-3)[GlcNAc(b1-2)Man(a1-6)]Man(b1-4)GlcNAc(b1-4)[Fuc(a1-6)]GlcNAc
Summary of the method: as §1

[12] = molecular target: GlcNAc(b1-2)Man(a1-3)[GlcNAc(b1-4)][GlcNAc(b1-2)Man(a1-6)]Man(b1-4)GlcNAc(b1-4)GlcNAc
Summary of the method: as §1

[13] = molecular target: GlcNAc(b1-2)Man(a1-3)[GlcNAc(b1-4)][GlcNAc(b1-2)Man(a1-6)]Man(b1-4)GlcNAc(b1-4)[Fuc(a1-6)]GlcNAc
Summary of the method: as §1

[14] = molecular target: GlcNAc(b1-2)[GlcNAc(b1-4)]Man(a1-3)[GlcNAc(b1-2)Man(a1-6)]Man(b1-4)GlcNAc(b1-4)GlcNAc
Summary of the method: as §1

[15] = molecular target: GlcNAc(b1-2)[GlcNAc(b1-4)]Man(a1-3)[GlcNAc(b1-4)][GlcNAc(b1-2)Man(a1-6)]Man(b1-4)GlcNAc(b1-4)GlcNAc
Summary of the method: as §1

[16] = molecular target: GlcNAc(b1-2)[GlcNAc(b1-4)]Man(a1-3)[GlcNAc(b1-4)][GlcNAc(b1-2)[GlcNAc(b1-6)]Man(a1-6)]Man(b1-4)GlcNAc(b1-4)GlcNAc
Summary of the method: as §1

[17] = molecular target: GlcNAc(b1-2)[GlcNAc(b1-4)]Man(a1-3)[GlcNAc(b1-4)][GlcNAc(b1-2)[GlcNAc(b1-6)]Man(a1-6)]Man(b1-4)GlcNAc(b1-4)[Fuc(a1-6)]GlcNAc
Summary of the method: as §1

[18] = molecular target: GlcNAc(b1-2)[GlcNAc(b1-6)]Man(a1-6)[GlcNAc(b1-2)Man(a1-3)]Man(b1-4)GlcNAc(b1-4)GlcNAc
Summary of the method: as §1

[19] = molecular target: GlcNAc(b1-2)[GlcNAc(b1-6)]Man(a1-6)[GlcNAc(b1-2)Man(a1-3)]Man(b1-4)GlcNAc(b1-4)[Fuc(a1-6)]GlcNAc
Summary of the method: as §1

[20] = molecular target: GlcNAc(b1-2)[GlcNAc(b1-6)]Man(a1-6)[GlcNAc(b1-4)][GlcNAc(b1-2)Man(a1-3)]Man(b1-4)GlcNAc(b1-4)GlcNAc
Summary of the method: as §1

GlcNAc(b1-3)Fuc = molecular target: GlcNAc(b1-3)Fuc
Summary of the method: as §1

GlcNAc(b1-3)Gal = molecular target: GlcNAc(b1-3)Gal
Summary of the method: as §1

[21] = molecular target: GlcNAc(b1-3)Gal(b1-3)GalNAc
Summary of the method: as §1

GlcNAc(b1-3)Gal(b1-4)Glc = molecular target: GlcNAc(b1-3)Gal(b1-4)Glc
Summary of the method: as §1

[22] = molecular target: GlcNAc(b1-3)Gal(b1-4)GlcNAc
Summary of the method: as §1

[23] = molecular target: GlcNAc(b1-3)Gal(b1-4)GlcNAc(b1-2)Man(a1-3)[GlcNAc(b1-3)Gal(b1-4)GlcNAc(b1-2)Man(a1-6)]Man(b1-4)GlcNAc(b1-4)GlcNAc
Summary of the method: as §1

[24] = molecular target: GlcNAc(b1-3)Gal(b1-4)GlcNAc(b1-2)Man(a1-3)[GlcNAc(b1-3)Gal(b1-4)GlcNAc(b1-2)Man(a1-6)]Man(b1-4)GlcNAc(b1-4)[Fuc(a1-6)]GlcNAc
Summary of the method: as §1

[25] = molecular target: GlcNAc(b1-3)Gal(b1-4)GlcNAc(b1-2)[GlcNAc(b1-3)Gal(b1-4)GlcNAc(b1-6)]Man(a1-6)[GlcNAc(b1-3)Gal(b1-4)GlcNAc(b1-2)Man(a1-3)]Man(b1-4)GlcNAc(b1-4)GlcNAc
Summary of the method: as §1

[26] = molecular target: GlcNAc(b1-3)Gal(b1-4)GlcNAc(b1-3)Gal(b1-4)GlcNAc
Summary of the method: as §1

[27] = molecular target: GlcNAc(b1-3)Gal(b1-4)GlcNAc(b1-3)Gal(b1-4)GlcNAc(b1-2)Man(a1-3)[GlcNAc(b1-3)Gal(b1-4)GlcNAc(b1-3)Gal(b1-4)GlcNAc(b1-2)Man(a1-6)]Man(b1-4)GlcNAc(b1-4)GlcNAc
Summary of the method: as §1

[28] = molecular target: GlcNAc(b1-3)Gal(b1-4)GlcNAc(b1-3)Gal(b1-4)GlcNAc(b1-2)Man(a1-3)[GlcNAc(b1-3)Gal(b1-4)GlcNAc(b1-3)Gal(b1-4)GlcNAc(b1-2)Man(a1-6)]Man(b1-4)GlcNAc(b1-4)[Fuc(a1-6)]GlcNAc
Summary of the method: as §1

[29] = molecular target: GlcNAc(b1-3)Gal(b1-4)GlcNAc(b1-3)Gal(b1-4)GlcNAc(b1-2)[GlcNAc(b1-3)Gal(b1-4)GlcNAc(b1-3)Gal(b1-4)GlcNAc(b1-6)]Man(a1-6)[GlcNAc(b1-3)Gal(b1-4)GlcNAc(b1-3)Gal(b1-4)GlcNAc(b1-2)Man(a1-3)]Man(b1-4)GlcNAc(b1-4)[Fuc(a1-6)]GlcNAc
Summary of the method: as §1

[30] = molecular target: GlcNAc(b1-3)Gal(b1-4)GlcNAc(b1-3)Gal(b1-4)GlcNAc(b1-3)Gal(b1-4)GlcNAc(b1-2)Man(a1-3)[GlcNAc(b1-3)Gal(b1-4)GlcNAc(b1-3)Gal(b1-4)GlcNAc(b1-3)Gal(b1-4)GlcNAc(b1-2)Man(a1-6)]Man(b1-4)GlcNAc(b1-4)GlcNAc
Summary of the method: as §1

[31] = molecular target: GlcNAc(b1-3)Gal(b1-4)GlcNAc(b1-3)Gal(b1-4)GlcNAc(b1-3)Gal(b1-4)GlcNAc(b1-2)Man(a1-3)[GlcNAc(b1-3)Gal(b1-4)GlcNAc(b1-3)Gal(b1-4)GlcNAc(b1-3)Gal(b1-4)GlcNAc(b1-2)Man(a1-6)]Man(b1-4)GlcNAc(b1-4)[Fuc(a1-6)]GlcNAc
Summary of the method: as §1

[32] = molecular target: GlcNAc(b1-3)Gal(b1-4)GlcNAc(b1-3)Gal(b1-4)GlcNAc(b1-3)Gal(b1-4)GlcNAc(b1-2)[GlcNAc(b1-3)Gal(b1-4)GlcNAc(b1-3)Gal(b1-4)GlcNAc(b1-3)Gal(b1-4)GlcNAc(b1-6)]Man(a1-6)[GlcNAc(b1-3)Gal(b1-4)GlcNAc(b1-3)Gal(b1-4)GlcNAc(b1-3)Gal(b1-4)GlcNAc(b1-2)Man(a1-3)]Man(b1-4)GlcNAc(b1-4)[Fuc(a1-6)]GlcNAc
Summary of the method: as §1

[33] = molecular target: GlcNAc(b1-3)Gal(b1-4)GlcNAc(b1-3)Gal(b1-4)GlcNAc(b1-3)Gal(b1-4)GlcNAc(b1-3)Gal(b1-4)GlcNAc(b1-2)Man(a1-3)[GlcNAc(b1-3)Gal(b1-4)GlcNAc(b1-3)Gal(b1-4)GlcNAc(b1-3)Gal(b1-4)GlcNAc(b1-3)Gal(b1-4)GlcNAc(b1-2)Man(a1-6)]Man(b1-4)GlcNAc(b1-4)GlcNAc
Summary of the method: as §1

[34] = molecular target: GlcNAc(b1-3)Gal(b1-4)GlcNAc(b1-3)Gal(b1-4)GlcNAc(b1-3)Gal(b1-4)GlcNAc(b1-3)Gal(b1-4)GlcNAc(b1-2)Man(a1-3)[GlcNAc(b1-3)Gal(b1-4)GlcNAc(b1-3)Gal(b1-4)GlcNAc(b1-3)Gal(b1-4)GlcNAc(b1-3)Gal(b1-4)GlcNAc(b1-2)Man(a1-6)]Man(b1-4)GlcNAc(b1-4)[Fuc(a1-6)]GlcNAc
Summary of the method: as §1

[35] = molecular target: GlcNAc(b1-3)Gal(b1-4)GlcNAc(b1-3)Gal(b1-4)GlcNAc(b1-3)Gal(b1-4)GlcNAc(b1-3)Gal(b1-4)GlcNAc(b1-2)[GlcNAc(b1-3)Gal(b1-4)GlcNAc(b1-3)Gal(b1-4)GlcNAc(b1-3)Gal(b1-4)GlcNAc(b1-3)Gal(b1-4)GlcNAc(b1-6)]Man(a1-6)[GlcNAc(b1-3)Gal(b1-4)GlcNAc(b1-3)Gal(b1-4)GlcNAc(b1-3)Gal(b1-4)GlcNAc(b1-3)Gal(b1-4)GlcNAc(b1-2)Man(a1-3)]Man(b1-4)GlcNAc(b1-4)[Fuc(a1-6)]GlcNAc
Summary of the method: as §1

B1: GS13599A-bth-520-23-520 (Bacteroides thetaiotaomicron) (protein)
chain: SEDTMDRINKDHDHTTSVASRFILADVITSTAFSNASGDINTYASSYIEYEVGVDNQLYYAEVRENEPSSSSTFNNSWNGIYSSLKNARIIIDQCGEGGRDHGNDVTRGMAEVMAAYNCALIADFFGDAPCSQAALVDEKGSPVYMTPKMDTQQEIYTQIISYLDDAIANLQKEDLADVTEQDFLYAGDADKWLKFAYGLKARYTMRLINRSSNKSADYEKVLDYVSKSFTSADDQAAFDIYDSNNINPFYGFYNSRAGFGASTSLGTKLLAYNDPRANRAFFTPIVDKKRSQVAANDPSLVPAPNGSPDQSTSKYGISAFVYAKTAPTLLMSYHELMFLKAEALCRLNRDAEDALKEAVVAGLLNAENSISIAIKELGSGLNTNSSEVITETSAGKYFDDVVKAKYAANPLQETMIQKYLAMWGASGEATETYNDFRRMKGLNENFITLTNPNNSSKFPLRYPYGNSDTAANPEVKAAYGNGDYVYSEPVWWAGGSR
[1]
  glycan array binding signal (z-score): 0.375
[2]
  glycan array binding signal (z-score): -1.3
[3]
  glycan array binding signal (z-score): -0.237
[4]
  glycan array binding signal (z-score): -0.357
[5]
  glycan array binding signal (z-score): -0.261
[6]
  glycan array binding signal (z-score): -0.449
[7]
  glycan array binding signal (z-score): 1.74
[8]
  glycan array binding signal (z-score): -0.737
[9]
  glycan array binding signal (z-score): -0.441
[10]
  glycan array binding signal (z-score): -0.727
[11]
  glycan array binding signal (z-score): 0.409
[12]
  glycan array binding signal (z-score): 2.52
[13]
  glycan array binding signal (z-score): 1.21
[14]
  glycan array binding signal (z-score): -0.063
[15]
  glycan array binding signal (z-score): -1.27
[16]
  glycan array binding signal (z-score): 0.339
[17]
  glycan array binding signal (z-score): 0.827
[18]
  glycan array binding signal (z-score): -0.308
[19]
  glycan array binding signal (z-score): 0.819
[20]
  glycan array binding signal (z-score): 1.19
GlcNAc(b1-3)Fuc
  glycan array binding signal (z-score): -0.118
GlcNAc(b1-3)Gal
  glycan array binding signal (z-score): -1.3
[21]
  glycan array binding signal (z-score): 1.12
GlcNAc(b1-3)Gal(b1-4)Glc
  glycan array binding signal (z-score): -1.27
[22]
  glycan array binding signal (z-score): -0.599
[23]
  glycan array binding signal (z-score): -0.584
[24]
  glycan array binding signal (z-score): -0.287
[25]
  glycan array binding signal (z-score): 1.84
[26]
  glycan array binding signal (z-score): -0.947
[27]
  glycan array binding signal (z-score): 1.66
[28]
  glycan array binding signal (z-score): 1.66
[29]
  glycan array binding signal (z-score): 1.37
[30]
  glycan array binding signal (z-score): 1.67
[31]
  glycan array binding signal (z-score): 1.88
[32]
  glycan array binding signal (z-score): 0.815
[33]
  glycan array binding signal (z-score): -0.827
[34]
  glycan array binding signal (z-score): -0.522
[35]
  glycan array binding signal (z-score): 0.725
